Data as given in PubChem BioAssay AID1259425 (University of Nebraska Medical Center, 2018).
This is a random part of about 14,000 reagents. Not all columns of the deposit are shown. Not stated in the record: the time to read-out.

Assay: 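Find knockdowns that reproduce the gene expression pattern seen when KSR1 is lost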 (primary screen)
Cells: HCT116 human colon cancer cells
Knock-down reagent: siRNA pool against human genes, 50 nM siRNA
Measurement: 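After 50 nM siRNA pool, branched-DNA assay measures six marker transcripts per well, minus blank, normalised to the geometric mean of two housekeeping transcripts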
Direction: BNIP3L mRNA: higher = more BNIP3L transcript after knockdown; NDRG1 mRNA: higher = more NDRG1 transcript after knockdown

AKAP9 — BNIP3L mRNA, set 1: 0.084; NDRG1 mRNA, set 1: 0.105
PNMA8A — BNIP3L mRNA, set 1: 0.211; NDRG1 mRNA, set 1: 0.63
ERN1 — BNIP3L mRNA, set 1: 0.304; NDRG1 mRNA, set 1: 0.514
DRD3 — BNIP3L mRNA, set 1: 0.0488; NDRG1 mRNA, set 1: 0.133
NDUFC2 — BNIP3L mRNA, set 1: 0.111; NDRG1 mRNA, set 1: 0.465
ZNF133 — BNIP3L mRNA, set 1: 0.0783; NDRG1 mRNA, set 1: 0.341
FGF19 — BNIP3L mRNA, set 1: 0.0961; NDRG1 mRNA, set 1: 0.133
STK16 — BNIP3L mRNA, set 1: 0.0926; NDRG1 mRNA, set 1: 0.207
CCNG2 — BNIP3L mRNA, set 1: 0.156; NDRG1 mRNA, set 1: 0.223
CEACAM6 — BNIP3L mRNA, set 1: 0.169; NDRG1 mRNA, set 1: 0.332
C1orf56 — BNIP3L mRNA, set 1: 0.0984; NDRG1 mRNA, set 1: 0.0857
MPC2 — BNIP3L mRNA, set 1: 0.0855; NDRG1 mRNA, set 1: 0.406
PAH — BNIP3L mRNA, set 1: 0.0604; NDRG1 mRNA, set 1: 0.151
LIPE — BNIP3L mRNA, set 1: 0.168; NDRG1 mRNA, set 1: 0.187
ETV4 — BNIP3L mRNA, set 1: 0.296; NDRG1 mRNA, set 1: 0.0973
ABHD3 — BNIP3L mRNA, set 1: 0.103; NDRG1 mRNA, set 1: 0.159
RRP9 — BNIP3L mRNA, set 1: 0.102; NDRG1 mRNA, set 1: 0.18
PIGO — BNIP3L mRNA, set 1: 0.0586; NDRG1 mRNA, set 1: 0.256
ARSG — BNIP3L mRNA, set 1: 0.39; NDRG1 mRNA, set 1: 0.14
CFAP45 — BNIP3L mRNA, set 1: 0.265; NDRG1 mRNA, set 1: 0.357
DDX56 — BNIP3L mRNA, set 1: 0.186; NDRG1 mRNA, set 1: 0.327
HLA-E — BNIP3L mRNA, set 1: 0.0645; NDRG1 mRNA, set 1: 0.237
CD276 — BNIP3L mRNA, set 1: 0.0932; NDRG1 mRNA, set 1: 0.0867
MMRN1 — BNIP3L mRNA, set 1: 0.125; NDRG1 mRNA, set 1: 0.134
TMEFF1 — BNIP3L mRNA, set 1: 0.0655; NDRG1 mRNA, set 1: 0.16
PRRG4 — BNIP3L mRNA, set 1: 0.151; NDRG1 mRNA, set 1: 0.717
OCEL1 — BNIP3L mRNA, set 1: 0.104; NDRG1 mRNA, set 1: 0.396
MYORG — BNIP3L mRNA, set 1: 0.164; NDRG1 mRNA, set 1: 0.328

3 entries already listed, sorted by “NDRG1 mRNA, set 1”, highest first:
CCNG2 — BNIP3L mRNA, set 1: 0.156; NDRG1 mRNA, set 1: 0.223
STK16 — BNIP3L mRNA, set 1: 0.0926; NDRG1 mRNA, set 1: 0.207
FGF19 — BNIP3L mRNA, set 1: 0.0961; NDRG1 mRNA, set 1: 0.133
